Measurements from PMC12420792.
No constants are given. Whether binding was seen depends on the method and setting. Binding seen in cells or lysates may run through a third protein. A result given as binding can be weak or reduced; the word gives no strength. Tags and fused reporters may be left off the sequences shown.

Protein sequences, listed by entry. Tags and fused reporters are not part of them. Lines headed by an entry give the natural chain unless they say otherwise; changes in a name come on top.
UniProt P59280: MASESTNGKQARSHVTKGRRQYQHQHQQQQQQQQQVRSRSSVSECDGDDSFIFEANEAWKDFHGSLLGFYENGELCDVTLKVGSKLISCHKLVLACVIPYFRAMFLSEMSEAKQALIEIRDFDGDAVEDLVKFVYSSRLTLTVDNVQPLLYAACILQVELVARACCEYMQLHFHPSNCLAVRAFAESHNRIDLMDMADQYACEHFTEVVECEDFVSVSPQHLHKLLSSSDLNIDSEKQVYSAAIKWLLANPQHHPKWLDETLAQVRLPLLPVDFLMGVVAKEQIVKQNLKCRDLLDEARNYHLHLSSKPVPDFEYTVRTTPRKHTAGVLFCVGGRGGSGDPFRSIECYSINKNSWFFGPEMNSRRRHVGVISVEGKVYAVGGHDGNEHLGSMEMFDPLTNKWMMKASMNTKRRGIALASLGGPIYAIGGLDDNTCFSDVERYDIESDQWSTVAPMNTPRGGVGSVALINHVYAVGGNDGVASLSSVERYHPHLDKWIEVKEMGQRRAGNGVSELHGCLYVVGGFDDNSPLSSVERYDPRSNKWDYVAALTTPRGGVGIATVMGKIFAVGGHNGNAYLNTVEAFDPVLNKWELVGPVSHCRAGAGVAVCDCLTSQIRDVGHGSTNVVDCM

Biological target: T1, ZAR1-FLAG (mouse) (UniProt Q80SU3)
T1 sequence: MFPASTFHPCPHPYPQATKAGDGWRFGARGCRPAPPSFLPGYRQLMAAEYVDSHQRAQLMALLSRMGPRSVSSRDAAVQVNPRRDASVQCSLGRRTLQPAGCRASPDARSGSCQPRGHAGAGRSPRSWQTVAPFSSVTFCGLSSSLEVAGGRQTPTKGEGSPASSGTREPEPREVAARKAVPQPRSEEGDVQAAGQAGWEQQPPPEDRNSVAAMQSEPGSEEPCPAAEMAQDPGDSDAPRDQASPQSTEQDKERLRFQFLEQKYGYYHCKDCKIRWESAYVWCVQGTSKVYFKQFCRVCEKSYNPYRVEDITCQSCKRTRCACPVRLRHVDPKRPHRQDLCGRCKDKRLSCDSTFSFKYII
Assay: co-IP; HeLa cells co-transfected, 36 h; NP40 lysis buffer with protease inhibitors; FLAG-beads or HA-beads, 4 °C, 2 h; four washes with lysis buffer; blots with anti-FLAG or anti-HA

KLHL8 BTB domain truncation (from UniProt P59280)
binding: binds
